# From PMC13236601
# Biological target: LypB (full-length, bacterial two-hybrid fusion) (C. crescentus)
# Test: two-hybrid; bacterial adenylate cyclase two-hybrid (Euromedex kit EUK001); E. coli BTH101 co-transformed with pKT25 and pUT18C fusions; each protein or domain tested in both T25 and T18 vectors; cultures spotted on McConkey agar, 30 °C, 24 h; three independent repeats
substance,measurement,value
"LypA (full-length, bacterial two-hybrid fusion) (from UniProt A0A0H3IFL3)",binding,binds

# No constants are given. Whether binding was seen depends on the method and setting. Binding calls can cover weak binding; strength is not graded here.
